Part of at least one peptide drawing is inferred or uncertain, most often the ends. No end group written: not given here.
Experiments:
HIV-2 CBL-20 strain = experiment: HIV-2 replication in pre-stimulated PBMCs, p24; assay type: cell-based; details: 7 days
Protocol: PBMCs were isolated from whole blood of healthy individuals by using Ficoll density gradients. […] Cells were subsequently maintained in PHA-free medium and seeded at 150 000 cells per well in 96-well plates. After 24 h, peptides were added at different concentrations and the cultures were infected with the CBL-20 HIV-2 strain. The cultures were kept for 7 days, being changed every 3 days the medium and the peptides added. Cultures were harvested and supernatants collected to evaluate the presence of the p24 viral protein.

[1] = system: cytoskeletal intermediate filaments (IFs); experiment: IFs structural analysis by transmission electron microscopy; assay type: cell-based, human
Protocol: Firstly, MT4vim(s), MT4K-10(s) and MT4 cells were fixed in 3.2% glutaraldehyde for 1 h at 4° C. and then fixed in 2% osmium tetroxide for 1 h at 4° C. They were subsequently washed with 0.1 M phosphate buffered saline (PBS), pH 7.2, and dehydrated at increasing ethanol concentrations (30, 50, 70 and 100%) for 10 min each at 4° C. Inclusion was carried out and ultrathin 40-50 nm-width sections were taken in an ultramicrotome (NOVA, LKB), which were placed on 400-orifices nickel trays. Once the ultrathin cuts were taken and placed on the trays, they were contrasted with saturated uranyl acetate and lead citrate, and further examined under a JEOL JEM 2000 EX (JEOL) microscope. Five microphotographs were analyzed at different magnifications. MT4 cell intact IFs are shown in FIG. 5A, meanwhile these structures appeared shortened in MT4vim(s) MT4K-10(s) cells (FIGS. 5B and C, respectively). […] Inhibition of the viral replication was observed under these conditions. Vimentin or keratin-10 proteins were identified at IFs by immunomicroscopy.
IFs structure was analyzed by transmission electron microscopy, following the methodology described in Example 3.
IFs structures were analyzed by transmission electron microscopy, following the methodology described in Example 3. […]

## KVELQELNDRFANYIDKVRF [Peptide 3]
HIV-2 CBL-20 strain
  HIV-2 replication: inhibited HIV-2 replication in a dose-dependent manner

## RVTQMNLNDRLASLYDKV [Peptide 1]
HIV-2 CBL-20 strain
  HIV-2 replication: inhibited HIV-2 replication in a dose-dependent manner
[1]; MT4 cells
  IFs structure: disassembles the structure of vimentin
[1]; treated patients (two with SEQ ID No. 1, three with SEQ ID No. 2)
  IFs structure: shortened

From patent publication US9205128B2, “Method for inhibiting HIV replication in mammal and human cells” (priority 2010, dated 2015)
